Data from paper PMC10803816, “EGFR core fucosylation, induced by hepatitis C virus, promotes TRIM40-mediated-RIG-I ubiquitination and suppresses interferon-I antiviral defenses”.
Results are given in words; binding and its absence hold for the method and conditions named. In cells and extracts the contact can be indirect. Some entries that bind do so weakly or less than the wild type. Sequences can lack the tags named with a protein.

Molecular target: T1, His-RIG-I (UniProt O95786)
T1 sequence: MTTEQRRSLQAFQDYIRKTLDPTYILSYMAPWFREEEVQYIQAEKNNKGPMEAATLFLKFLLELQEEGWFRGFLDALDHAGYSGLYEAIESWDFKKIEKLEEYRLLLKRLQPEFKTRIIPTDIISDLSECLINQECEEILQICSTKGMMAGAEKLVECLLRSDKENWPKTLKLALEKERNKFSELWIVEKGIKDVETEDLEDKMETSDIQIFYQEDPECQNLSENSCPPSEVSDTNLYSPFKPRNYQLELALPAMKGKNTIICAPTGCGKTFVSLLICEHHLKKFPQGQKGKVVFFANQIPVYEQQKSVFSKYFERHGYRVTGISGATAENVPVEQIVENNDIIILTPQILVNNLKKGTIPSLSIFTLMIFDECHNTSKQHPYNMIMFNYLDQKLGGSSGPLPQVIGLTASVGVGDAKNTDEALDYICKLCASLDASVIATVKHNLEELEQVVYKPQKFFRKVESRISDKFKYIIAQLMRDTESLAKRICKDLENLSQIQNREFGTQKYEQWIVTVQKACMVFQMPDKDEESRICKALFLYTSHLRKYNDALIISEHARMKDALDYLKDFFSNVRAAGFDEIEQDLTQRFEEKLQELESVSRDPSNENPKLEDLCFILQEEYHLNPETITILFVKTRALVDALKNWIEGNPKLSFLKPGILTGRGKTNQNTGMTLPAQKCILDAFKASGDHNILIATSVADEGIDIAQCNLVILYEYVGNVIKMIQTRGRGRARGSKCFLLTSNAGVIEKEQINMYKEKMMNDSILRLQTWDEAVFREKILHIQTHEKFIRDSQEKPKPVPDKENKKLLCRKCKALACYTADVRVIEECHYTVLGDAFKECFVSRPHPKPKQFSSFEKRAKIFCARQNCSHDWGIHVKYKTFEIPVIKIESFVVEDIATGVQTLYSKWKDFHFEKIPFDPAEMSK
Test: co-IP; Huh7.5.1 cells transfected with indicated plasmids (FUT8 overexpression) or treated with 2FF (100 uM) for 24 h, then infected with HCV (MOI = 0.1) for 48 h with MG132; IP with antibody to His-RIG-I and blot for Trim40, or IP with antibody to Trim40 and blot for His tag; RIPA buffer, protein A agarose beads, 4 °C

B1: Trim40 (protein, UniProt Q6P9F5 1-258)
chain: MIPLQKDNQEEGVCPICQESLKEAVSTNCGHLFCRVCLTQHVEKASASGVFCCPLCRKPCSEEVLGTGYICPNHQKRVCRFCEESRLLLCVECLVSPEHMSHHELTIENALSHYKERLNRRSRKLRKDIAELQRLKAQQEKKLQALQFQVDHGNHRLEAGPESQHQTREQLGALPQQWLGQLEHMPAEAARILDISRAVTQLRSLVIDLERTAKELDTNTLKNAGDLLNRSAPQKLEVIYPQLEKGVSELLLQPPQKL
- binding: binds
